Data source: PubChem BioAssay AID743121 (NCATS, 2013)
Purpose: 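Genes whose silencing strengthens cell killing by camptothecin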 (primary screen). Cell system: MDA-MB-231 cells, a human breast cancer line. Knock-down reagent: single siRNA against human genes, 20 nM siRNA (0.8 pmol per well). Time to read-out: 120 h (drug added 48 h after transfection, read 72 h later). Conditions: camptothecin 20 nM (about EC30) for 72 h; vehicle 0.1% DMSO in parallel plates. Measured: 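Cell viability by ATP luminescence (CellTiter-Glo) as % of non-targeting siRNA wells, and the log2 ratio of viability without drug over viability with camptothecin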. Direction: log2 vehicle/camptothecin viability: higher = stronger sensitisation to camptothecin. Active means: 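Active genes have an RSA gene-level p-value below 0.001, computed from the ratios of their separate siRNAs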.
This is a random part of about 26,000 reagents. 167 of all reagents (0.63%) count as active. 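Calls are per gene from RSA p-values that are not deposited; an individual active-marked siRNA can sensitise only weakly.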 Unmarked entries are inactive. Reagents against one gene are numbered here. Further read-outs or replicates are left out here.

How did the screen score CYP19A1 (GeneID 1588) #1?
log2 vehicle/camptothecin viability: 0.171

For CYP19A1 (GeneID 1588) #2, what does the deposit list?
log2 vehicle/camptothecin viability: -0.083

With CYP19A1 (GeneID 1588) #3, how do the results read?
log2 vehicle/camptothecin viability: 0.493

How did the screen score CYP19A1 (GeneID 1588) #4?
log2 vehicle/camptothecin viability: -0.116

For VDAC2 (GeneID 7417) #1, what was measured?
log2 vehicle/camptothecin viability: 1.12

What is on record for VDAC2 (GeneID 7417) #2?
log2 vehicle/camptothecin viability: -0.285

For VDAC2 (GeneID 7417) #3, what does the deposit list?
log2 vehicle/camptothecin viability: -0.0883

For VDAC2 (GeneID 7417) #4, how do the results read?
log2 vehicle/camptothecin viability: -0.313

With GALC (GeneID 2581) #1, what does the deposit list?
log2 vehicle/camptothecin viability: -0.32

With GALC (GeneID 2581) #2, what does the deposit list?
log2 vehicle/camptothecin viability: -0.441

With GALC (GeneID 2581) #3, what does the deposit list?
log2 vehicle/camptothecin viability: -0.197

For GALC (GeneID 2581) #4, how do the results read?
log2 vehicle/camptothecin viability: -0.161

With ACAD11 (GeneID 84129) #1, how do the results read?
log2 vehicle/camptothecin viability: 0.0284

For ACAD11 (GeneID 84129) #2, what does the deposit list?
log2 vehicle/camptothecin viability: -0.275

What did the screen give for ACAD11 (GeneID 84129) #3?
log2 vehicle/camptothecin viability: 0.0988

Which result is listed for ACAD11 (GeneID 84129) #4?
log2 vehicle/camptothecin viability: 0.477

With TESK1 (GeneID 7016) #1, how do the results read?
log2 vehicle/camptothecin viability: -0.405

How did the screen score TESK1 (GeneID 7016) #2?
log2 vehicle/camptothecin viability: -0.249

For TESK1 (GeneID 7016) #3, what was measured?
log2 vehicle/camptothecin viability: -0.417

For TESK1 (GeneID 7016) #4, what does the deposit list?
log2 vehicle/camptothecin viability: -0.283

Which result is listed for CCL26 (GeneID 10344) #1?
log2 vehicle/camptothecin viability: -0.157

With CCL26 (GeneID 10344) #2, how do the results read?
log2 vehicle/camptothecin viability: -0.152

With CCL26 (GeneID 10344) #3, what does the deposit list?
log2 vehicle/camptothecin viability: 0.0398

What did the screen give for CCL26 (GeneID 10344) #4?
log2 vehicle/camptothecin viability: 0.184

Reformatted: entries from further up
| gene knocked down | reagent | log2 vehicle/camptothecin viability |
| --- | --- | --- |
| VDAC2 (GeneID 7417) | 4 | -0.313 |
| GALC (GeneID 2581) | 1 | -0.32 |
